Experimental data published in patent publication US10744181B2, “Glycopeptide derivatives for use in the treatment and/or prevention and/or attenuation of fibrosis diseases” (TFCHEM, priority 2017, dated 2020).
Where “and” joins values, the source holds several entries; their conditions need not be identical. Identical values can stand only once.

Tests used:
Assay type in all cases: cell-based
ELN [1] = test: RT-qPCR mRNA expression of ELN in normal human dermal fibroblasts; settings: 94 mM, 24 hours, PCR n=2
COL3A1 = test: RT-qPCR mRNA expression of COL3A1 in normal human dermal fibroblasts; settings: 94 mM, 24 hours, PCR n=2
MMP3 = test: RT-qPCR mRNA expression of MMP3 in normal human dermal fibroblasts; settings: 94 mM, 24 hours, PCR n=2
DPT = test: RT-qPCR mRNA expression of DPT in normal human dermal fibroblasts; settings: 94 mM, 24 hours, PCR n=2
COL8A1 = test: RT-qPCR mRNA expression of COL8A1 in normal human dermal fibroblasts; settings: 94 mM, 24 hours, PCR n=2
PCOLCE = test: RT-qPCR mRNA expression of PCOLCE in normal human dermal fibroblasts; settings: 94 mM, 24 hours, PCR n=2
ACTA2 = test: RT-qPCR mRNA expression of ACTA2 in normal human dermal fibroblasts; settings: 94 mM, 24 hours, PCR n=2
COL1A1 = test: RT-qPCR mRNA expression of COL1A1 in normal human dermal fibroblasts; settings: 94 mM, 24 hours, PCR n=2
TFPI2 = test: RT-qPCR mRNA expression of TFPI2 in normal human dermal fibroblasts; settings: 94 mM, 24 hours, PCR n=2
TGFBR2 = test: RT-qPCR mRNA expression of TGFBR2 in normal human dermal fibroblasts; settings: 94 mM, 24 hours, PCR n=2
MMP1 = test: RT-qPCR mRNA expression of MMP1 in aged human dermal fibroblasts; settings: 34 mM, 24 hours, aged human dermal fibroblasts (17th passage); PCR n=2
LEPR = test: RT-qPCR mRNA expression of LEPR in normal human dermal fibroblasts; settings: 94 mM, 24 hours, PCR n=2
FBLN5 = test: RT-qPCR mRNA expression of FBLN5 in normal human dermal fibroblasts; settings: 94 mM, 24 hours, PCR n=2
DCN = test: RT-qPCR mRNA expression of DCN in normal human dermal fibroblasts; settings: 94 mM, 24 hours, PCR n=2
ELN [2] = test: RT-qPCR mRNA expression of ELN in aged human dermal fibroblasts; settings: 34 mM, 24 hours, aged human dermal fibroblasts (17th passage); PCR n=2

C[C@H](NC(=O)[C@H](C)NC(=O)[C@@H](N)CCCCNCC(F)(F)[C@]1(O)O[C@H](CO)[C@H](O)[C@H](O)[C@H]1O)C(=O)O [Compound 1]
ELN Cycles (ELN [1]): 27.17 and 27.16
COL3A1 Cycles (COL3A1): 22.87 and 22.72
MMP3 Cycles (MMP3): 20.88 and 20.97
DPT Cycles (DPT): 24.18 and 24.14
COL8A1 Cycles (COL8A1): 24.57 and 24.51
PCOLCE Cycles (PCOLCE): 22.02 and 22.04
ACTA2 Cycles (ACTA2): 26.87 and 26.76
COL1A1 Cycles (COL1A1): 17.13 and 17.03
TFPI2 Cycles (TFPI2): 26.14 and 26.01
TGFBR2 Cycles (TGFBR2): 27.51 and 27.26
MMP1 Cycles (MMP1): 17.53 and 17.60
LEPR Cycles (LEPR): 29.16 and 29.64
FBLN5 Cycles (FBLN5): 24.21 and 24.06
DCN Cycles (DCN): 19.94 and 19.89

C[C@H](NC(=O)[C@@H](N)CCCCNCC(F)(F)[C@]1(O)O[C@H](CO)[C@H](O)[C@H](O)[C@H]1O)C(=O)O [Compound 3]
ELN Cycles (ELN [2]): 28.99 and 29.28
MMP1 Cycles (MMP1): 18.93 and 18.81

N[C@@H](CCCCNCC(F)(F)[C@]1(O)O[C@H](CO)[C@H](O)[C@H](O)[C@H]1O)C(=O)O [Compound 4]
ELN Cycles (ELN [2]): 29.72 and 30.04
MMP1 Cycles (MMP1): 18.33 and 18.35
